According to PubChem BioAssay AID540275 (National Center for Advancing Translational Sciences (NCATS), 2011):
In all, about 320,000 compounds went through this assay and about 620 (0.19%) were called active. The shares of active, inactive and inconclusive entries below differ from those in the screen. No stated cut-off is given here; in the data, active means activation above about 80%; inconclusive means between about 30% and that limit; inactive means weaker than that.

Chains of the proteins cited; added tags and fusions are not shown.
UniProt Q8NER1, whole entry, looked up: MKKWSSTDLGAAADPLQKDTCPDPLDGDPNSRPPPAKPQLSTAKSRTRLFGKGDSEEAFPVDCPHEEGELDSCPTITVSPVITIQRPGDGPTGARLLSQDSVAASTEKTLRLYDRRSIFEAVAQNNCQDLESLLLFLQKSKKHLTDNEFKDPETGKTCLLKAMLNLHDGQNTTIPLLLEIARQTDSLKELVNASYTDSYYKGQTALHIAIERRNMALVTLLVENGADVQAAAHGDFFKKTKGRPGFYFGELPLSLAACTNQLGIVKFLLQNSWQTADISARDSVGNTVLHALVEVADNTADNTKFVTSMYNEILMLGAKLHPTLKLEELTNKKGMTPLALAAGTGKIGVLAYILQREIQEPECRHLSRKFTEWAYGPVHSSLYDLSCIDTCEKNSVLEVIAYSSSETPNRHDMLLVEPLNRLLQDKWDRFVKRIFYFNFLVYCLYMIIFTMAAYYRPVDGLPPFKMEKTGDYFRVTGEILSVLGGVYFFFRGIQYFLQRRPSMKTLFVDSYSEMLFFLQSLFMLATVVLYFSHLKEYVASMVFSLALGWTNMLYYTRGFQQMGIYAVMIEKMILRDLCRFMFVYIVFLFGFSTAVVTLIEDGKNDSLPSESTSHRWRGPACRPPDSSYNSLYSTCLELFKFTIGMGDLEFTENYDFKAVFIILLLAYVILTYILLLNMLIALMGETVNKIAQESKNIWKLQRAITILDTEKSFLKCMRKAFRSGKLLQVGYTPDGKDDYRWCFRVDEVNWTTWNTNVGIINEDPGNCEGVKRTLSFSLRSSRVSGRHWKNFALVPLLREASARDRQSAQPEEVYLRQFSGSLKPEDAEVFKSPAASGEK

target: Transient receptor potential cation channel subfamily V member 1 (Homo sapiens) (UniProt Q8NER1); experiment: HTS Assay for Compounds that Act as Agonists of the Vanilloid Receptor 1; conditions: TRPV1-expressing cells, Fluo-8 calcium influx, agonist mode; at 8.33 µM, hits give high values; further: 0% is about no effect
Outline: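 TRPV1-expressing cells were cultured overnight at 35.5C and loaded with Fluo-8 calcium dye for 40 to 90 min at room temperature. After a 10 s baseline, compound was added and calcium influx was read kinetically for 3 min (ex 480/em 520 nm).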

| SMILES | activation |
| --- | --- |
| CCOC(=O)C1=C(COC(=O)c2ccc(Br)o2)NC(=O)NC1C (stereo unspecified) | inactive: 7.21% |
| COc1ccc(CCNC(=O)c2ccc(Cl)c(S(=O)(=O)N(C)c3ccccc3)c2)cc1 | inactive: -9.43% |
| CC(C)(C)C(=O)Nc1ccccc1C(=O)NCCC(=O)Nc1ccccc1 | inconclusive: 50.4% |
| CCCC(=O)Nc1cccc2c1CCCC2 | inactive: -1.34% |
| Cc1cc(C)nc(Nc2nc(C)c3cc4c(cc3n2)OCO4)n1 | inactive: 0.985% |
| O=C(Nc1ccc(Cl)cc1)Nc1ccccc1NS(=O)(=O)c1cccs1 | inactive: 2.14% |
| CCC(CNc1cc(OC)cc2cccnc12)NC1CCCCC1 (stereo unspecified) | inactive: 2.87% |
| O=[N+]([O-])c1ccc(/C=N/n2c(COc3ccccc3)n[nH]c2=S)cc1 | inactive: 10.5% |
| O=C(CSc1nc2ccccc2c(=O)n1Cc1ccco1)N1CCN(c2ccccc2)CC1 | inconclusive: 31.2% |
| Clc1cccc(CON/C=N/c2ncnc3sccc23)c1 | inconclusive: 30.5% |
| COC(=O)c1ccc2c(=O)n(CCCCCC(=O)O)c(=O)[nH]c2c1 | inactive: 0.357% |
| O=C(Nc1ccc2c(c1)OCCO2)c1ccccc1 | inconclusive: 59.8% |
| COc1ccc2[nH]c(=O)c(C(c3nnnn3CC3CCCO3)N3CCc4ccccc4C3)cc2c1 (stereo unspecified) | inactive: 8.99% |
| O=C(Nc1ccc(Br)cc1)NC1CCCCCCC1 | inconclusive: 58.8% |
| COc1ccc([C@@H](NC(=O)OC(C)(C)C)C(=O)OC(C)(C)C)cc1 | inconclusive: 46% |
| CCCn1c(SCC(=O)N2CCCC2)nc2c1c(=O)n(C)c(=O)n2C | inactive: -0.743% |
| CN(CC(=O)Nc1ccc(F)cc1)C(=O)CCc1nc2sc3c(c2c(=O)[nH]1)CCCC3 | inactive: -2.91% |
| Cc1ccnc(NC(=O)c2ccc(Cl)c(NC(=O)c3ccccc3C)c2)c1 | inconclusive: 37.1% |
| Cc1ccsc1/C=N/n1c(C2CCCCC2)n[nH]c1=S | inactive: -0.538% |
| O=C(C1=C[C@@H](c2ccc(C(F)(F)F)cc2)C[C@@H](OCc2ccc(CO)cc2)O1)N1CCOCC1 | inconclusive: 64.5% |
| CN1CCc2cc(O)c(O)cc2C(c2ccccc2)C1 (stereo unspecified) | inactive: 1.12% |
| O=C(Nc1ccc2c(c1)OCO2)c1cccc(Cl)c1 | inconclusive: 57.4% |
| O=C(NC1CCCCC1)C1CC(=O)N(c2cccc([N+](=O)[O-])c2)C1 (stereo unspecified) | inconclusive: 44.6% |

Structural class, the compounds so far containing a tert-butyl group (2)

| SMILES | activation |
| --- | --- |
| CC(C)(C)C(=O)Nc1ccccc1C(=O)NCCC(=O)Nc1ccccc1 | inconclusive: 50.4% |
| COc1ccc([C@@H](NC(=O)OC(C)(C)C)C(=O)OC(C)(C)C)cc1 | inconclusive: 46% |

(list continues)

| SMILES | activation |
| --- | --- |
| Cc1c(C(=O)NCc2ccccn2)oc2ccc(Br)cc12 | inconclusive: 45.7% |
| COc1cccc(-c2n[nH]c(=S)n2Cc2ccco2)c1 | inactive: 0.795% |
| CCC(=O)Nc1ccc(C(=O)N/N=C/c2ccccc2[N+](=O)[O-])cc1 | inconclusive: 40.1% |
| CCc1c(C)sc(NC(=O)c2cc(C(C)C)on2)c1C#N | inconclusive: 33.2% |
| C=CCNC(=S)/N=c1/ccccn1CCC | inactive: 3.17% |
| O=C(Nc1ccc(Cl)cc1)C1C2CCC3C(CCC21)C3(Cl)Cl (stereo unspecified) | inconclusive: 31.6% |
| CCOC(=O)N1CCN(S(=O)(=O)c2cc([N+](=O)[O-])ccc2C)CC1 | inactive: 7.88% |
| c1ccc(-c2nc(-c3cccnc3)cs2)cc1 | inconclusive: 33.7% |
| COCCCN1C(=O)c2ccc(C(=O)Nc3ccccc3Cl)cc2C1=O | inconclusive: 33.5% |
| Cc1cc(C)c(O)c(-c2cc(C(=O)NCc3ccccc3)[nH]n2)c1 | inconclusive: 59.6% |
| CC(=O)NC(CC(=O)Nc1ccc(S(=O)(=O)NC2=NCCCCC2)cc1)c1ccccc1 (stereo unspecified) | inactive: 2.06% |
| Cc1cc(OCc2cc(C(=O)N(C)CC3CCOCC3)no2)cc(C)c1Cl | inconclusive: 65.6% |
| C=CC(C)(C)O[C@@H]1O[C@H](CO)[C@@H](O)[C@H](O)[C@H]1O | inactive: -7.67% |
| CCCNC(=O)C(Cc1ccc(C(F)(F)F)cc1)NC(=O)c1ccc2ccccc2n1 (stereo unspecified) | inconclusive: 45.1% |
| Cc1ccc(CNC(=O)CCc2c(C)nc3c(c(C)nn3-c3ccc(C)cc3)c2C)cc1 | inconclusive: 46.1% |
| O=C(c1cc2cc(Cl)ccc2o1)N1CCCCCC1 | inconclusive: 40.9% |
| O=C(c1cnn2c1NC(c1ccco1)CC2C(F)(F)F)N1CCN(c2cccc(Cl)c2)CC1 (stereo unspecified) | inactive: 8.57% |
| O=C(Nc1cccc(Cn2cccn2)c1)c1cc2c(s1)CCCC2 | inconclusive: 65.6% |
| CN(C1CCCCC1)S(=O)(=O)c1cccc2nsnc12 | inactive: 6.99% |
| Cc1cc2nc(N3CCN(C(=O)c4ccco4)CC3)sc2cc1C | inconclusive: 43.3% |
| O=C(COc1ccc(Cl)cc1Cl)NCCC1=CCCCC1 | inconclusive: 33.2% |
| COc1ccc(/C(C)=N/NC(=O)c2nnn(-c3nonc3N)c2-c2cccs2)cc1 | inactive: 5.26% |
| CC(=O)N1CCN(S(=O)(=O)c2cccc(C(=O)Nc3ccc(OC(F)F)cc3)c2)CC1 | inconclusive: 49.1% |
